Drawing on PubChem BioAssay AID445 (National Center for Advancing Translational Sciences (NCATS), 2006), this text covers AC50 for 61 molecules.

The other results are listed elsewhere or left out. Shown are side measurements of this screen, not its main read-out; they come without a call. Compounds called inactive in the main read-out are mostly missing here. Words in brackets tell the shape of the fitted curve; partial curves, single points and poor fits give uncertain potencies.

The test is described as follows: IkB Signaling. The following applies: ABC-DLBCL IkBa-CBG/CBR dual luciferase ratio (green luciferase fused to IkBa over red control in OCI-Ly3 lymphoma cells), 4 h. In outline: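 Luminescence ratio of IκBα-fused green versus native red beetle luciferase in OCI-Ly3 cells, 4 h post-doxycycline with compound; red signal alone, scaled from basal (0%) to zero light (-100%), flagged nonspecific or cytotoxic effects.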
[1] abbreviates: measured here: control luc red channel unless noted.
The mark [2] stands for this setting: measured here: IkB-luc green channel.
Where [3] appears, read: measured here: control luc red channel.

Take `Cc1nc(-n2nc(C)c(Cc3ccc4c(c3)OCO4)c2C)sc1C(=O)Nc1ccc(Cl)cc1`: the AC50 under setting [1] was 15.8 µM [falling, partial curve].

With `Cc1cccc(Cn2cccc2CNS(=O)(=O)c2ccc(C)c(C)c2)c1`, the AC50 under setting [1] was 31.6 µM [falling, partial curve].

With `O=C(c1ccco1)n1nc(-c2ccc(Cl)cc2)nc1NCc1ccc(F)cc1`, the AC50 under setting [1] is 10 µM [rising, partial curve].

For `COc1ccc(C2C(C(=O)Nc3ccccc3)=C(C)Nc3nc(-c4ccccc4Cl)nn32)cc1OC` (stereo not drawn), under setting [1], the AC50 is 20 µM [falling, single point].

For `CCCn1nnc2sc3c(c2c1=O)CCC(C)C3` (stereo not drawn), the AC50 under setting [1] is 2 µM [rising, full curve].

With `Cc1cc(C)c2sc(N3CCN(C(=O)C4CC4)CC3)nc2c1`, under setting [1], the AC50 is 12.6 µM [rising, partial curve].

On to `CCc1ccc2ncc3c(-c4ccc(C)cc4)nn(CC(=O)Nc4ccc(C)cc4)c3c2c1`, for which the AC50 under setting [1] is 0.0316 µM [rising, full curve, poor fit].

On to `COc1ccc(Oc2nc3c(C)cccn3c(=O)c2/C=C(\C#N)c2nc3ccccc3[nH]2)cc1`, for which the AC50 under setting [1] is 0.2 µM [falling, full curve].

On to `Cc1onc(-c2ccccc2Cl)c1C(=O)OCC(=O)Nc1ccc2c(c1)OCO2`, for which the half-maximal activity concentration (AC50) under setting [1] was 39.8 µM [falling, single point].

In the case of `Cc1ccccc1CNCCSc1nnnn1-c1ccccc1`, under setting [1], the AC50 was 0.398 µM [falling, partial curve, poor fit].

`COc1ccccc1OCc1ccc(C(=O)n2nc(C)c(Cl)c2C)o1`: the AC50 under setting [1] is 15.8 µM [falling, partial curve].

Take `COc1ccc(CNC(=O)CCc2c(C)c3cc4c(C)coc4cc3oc2=O)cc1`: under setting [1], the AC50 was 20 µM [falling, partial curve, poor fit].

As to `COc1ccc(CNC(=O)c2nc(S(=O)(=O)Cc3ccccc3)ncc2Cl)cc1`, the AC50 reads like this: under setting [2], 6.31 µM [rising, single point]; under setting [3], 10 µM [falling, partial curve].

Regarding `CCOc1ccccc1-n1c(SCC(=O)Nc2nccs2)nnc1-c1ccoc1C`, under setting [1], the AC50 was 25.1 µM [falling, partial curve].

Take `COc1ccc(CCNC(=O)CCc2c(C)nc3c(-c4ccc(F)cc4)c(C)nn3c2C)cc1OC`: the concentration at half-maximal activity (AC50) under setting [1] was 39.8 µM [falling, single point].

For `Cc1ccc(-n2c(SCc3nc(-c4ccc(Cl)cc4)no3)nnc2-c2ccncc2)cc1`, under setting [1], the AC50 is 15.8 µM [falling, partial curve].

On to `COc1ccc(-c2nc(CSCC(=O)N3CCN(c4cccc(C)c4)C(C)C3)c(C)o2)cc1OC` (stereo not drawn), for which the AC50 under setting [2] is 15.8 µM [falling, partial curve] and the AC50 under setting [3] was 10 µM [falling, partial curve].

For the molecule `CCc1ccc(NC(=O)CN(c2ccc(C)cc2)S(=O)(=O)c2c(C)nn(C)c2C)cc1`, the AC50 under setting [1] was 15.8 µM [falling, partial curve].

For `CCOc1cccc(CC(=O)N2CCc3c([nH]c4ccccc34)C2c2ccc(OC)cc2)c1OCC` (stereo not drawn), the AC50 under setting [1] was 10 µM [falling, partial curve].

With `COc1ccc(-c2c(C)nn3c(C(F)(F)F)cc(C)nc23)cc1OC`, under setting [1], the AC50 was 0.794 µM [falling, full curve, poor fit].

As for `Cc1ccccc1CN1C(=O)c2ccccc2S(=O)c2ccc(C(=O)NCc3ccccc3)cc21` (stereo not drawn), the AC50 under setting [1] was 6.31 µM [falling, full curve, poor fit].

Consider `CCCc1nn2c(=O)cc(COC(=O)c3ccccc3NC(=O)C3CCCCC3)nc2s1`, for which the AC50 under setting [1] is 39.8 µM [falling, single point].

For `Cc1ccc(NC(=O)CC(O)(C(F)(F)F)C(F)(F)F)c(Br)c1`, the AC50 under setting [1] is 25.1 µM [falling, single point].

On to `COC(=O)c1c(C)sc(-c2c(-c3ccc(F)cc3)[nH]c3[nH]c(=O)[nH]c(=O)c23)c1O`, for which, under setting [1], the AC50 is 31.6 µM [falling, single point].

Regarding `Cc1ccc(CNC(=O)c2cnn3c(C)c(Cc4c(F)cccc4Cl)c(C)nc23)cc1`, under setting [1], the AC50 is 39.8 µM [falling, single point].

Consider `CCOc1ccc(CCNC(=O)c2ccc(C)c(-n3c(C)nc4cccnc43)c2)cc1OCC`, for which, under setting [1], the AC50 was 39.8 µM [falling, single point].

On to `Cc1cccc(-c2nnc(SCC(=O)NC3CCCCC3)o2)c1`, for which the AC50 under setting [1] is 12.6 µM [falling, partial curve].

`CN1/C(=C\C(=O)COc2ccc3c(c2)OCO3)C(C)(C)c2ccccc21`: the AC50 under setting [1] was 31.6 µM [falling, partial curve].

Consider `COc1ccc(N(Cc2cccs2)C(=O)COc2ccc([N+](=O)[O-])cc2)cc1`, for which, under setting [1], the AC50 was 31.6 µM [falling, single point].

Regarding `CCOc1ccc(-c2cc(CCCC(=O)NCc3cccnc3)no2)cc1`, under setting [1], the AC50 is 5.01 µM [falling, partial curve].

Turning to `CCOc1ccc(C(=O)Nc2cc(-c3ccccc3)no2)cc1`, the concentration at half-maximal activity (AC50) under setting [1] is 0.251 µM [rising, full curve].

`CCN(Cc1ccccc1)C(=O)c1cc2ccc3cccnc3c2[nH]1`: the AC50 under setting [1] was 31.6 µM [falling, single point].

As for `O=C1c2oc3ccccc3c(=O)c2C(c2cccc(O)c2)N1Cc1ccc(F)cc1` (stereo not drawn), the AC50 under setting [1] is 25.1 µM [falling, single point].

As to `CCOc1ccc(N(CC(=O)Nc2ccc3c(c2)OCO3)S(=O)(=O)c2ccccc2)cc1`, the AC50 under setting [1] is 20 µM [falling, partial curve].

For `O=C(c1cc(-c2ccc(Cl)cc2)on1)N(Cc1ccc(F)cc1)Cc1ccco1`, the AC50 under setting [1] was 0.251 µM [falling, full curve, poor fit].

Turning to `CCn1c(COc2cccc(OC)c2)nnc1SCC(=O)Nc1cccc(OC)c1`, the AC50 under setting [1] was 12.6 µM [falling, partial curve].

With `COc1ccccc1-c1noc(CCC(=O)Nc2cccc(C)c2)n1`, the AC50 under setting [1] was 3.98 µM [falling, partial curve].

For `CCc1cccc(NC(=O)c2sc3nc[nH]c(=O)c3c2C)c1`, the AC50 under setting [1] was 0.1 µM [falling, full curve, poor fit].

On to `O=C1CN(C(=O)c2ccc(S(=O)(=O)N3CCCC3)cc2)C(c2ccc(F)cc2)c2cc(F)ccc2N1` (stereo not drawn), for which, under setting [1], the AC50 was 0.158 µM [falling, full curve].

On to `CCN(c1ccccc1)S(=O)(=O)c1nnc(NC(=O)C(C)Oc2ccccc2)s1` (stereo not drawn), for which the AC50 under setting [1] was 2.51 µM [falling, full curve].

In the case of `COc1ccc(C2c3c(-c4cc(Cl)c(C)cc4O)n[nH]c3C(=O)N2Cc2cccnc2)cc1OC` (stereo not drawn), the AC50 under setting [1] was 25.1 µM [falling, partial curve].

Take `COc1cc(C2C(C(=O)Nc3ccc(C)cc3C)=C(C)Nc3nc(SCc4ccccc4)nn32)cc(OC)c1OC` (stereo not drawn): the AC50 under setting [1] was 0.02 µM [rising, partial curve, poor fit].

Consider `COc1cc(C(=O)Nc2ccc(-n3cnnn3)c(C)c2)cc(OC)c1OC`, for which, under setting [1], the AC50 is 39.8 µM [falling, partial curve].

Take `CCOC(=O)N1CCN(C(=O)c2ccc3c(=O)n(Cc4ccc(OC)cc4)c(=S)[nH]c3c2)CC1`: the AC50 under setting [1] was 25.1 µM [falling, partial curve].

Take `COc1cc(C(=O)Nc2nccs2)c(Br)c(OC)c1OC`: the AC50 under setting [1] is 5.01 µM [falling, partial curve].

On to `CCOC(=O)c1c(NC(=O)COc2cccc(C)c2C)sc2c1CCCCC2`, for which the AC50 under setting [1] was 39.8 µM [falling, single point].

Take `Cc1ccc(Cn2ccn(Cc3cccc(C(F)(F)F)c3)c(=O)c2=O)cc1`: under setting [1], the AC50 is 2.51 µM [falling, partial curve].

Take `COc1cccc(NC(=O)CSc2nc3c([nH]c4ccccc43)c(=O)n2-c2cccc(Cl)c2)c1`: the AC50 under setting [1] was 0.794 µM [falling, full curve].

Take `CCOC(=O)c1ccc(NC(=O)CSc2nc(C)c(Cc3ccccc3)c(=O)[nH]2)cc1`: the AC50 under setting [1] is 12.6 µM [falling, partial curve].

With `Cc1ccc(-c2ccc(=O)n(CC(=O)Nc3ccc(C(C)C)cc3)n2)cc1`, the AC50 under setting [1] was 15.8 µM [falling, partial curve, poor fit].

Take `Cc1ccc(S(=O)(=O)Cn2nnnc2C(c2ccc(F)cc2)N2CCCCC2)cc1` (stereo not drawn): under setting [1], the AC50 was 25.1 µM [falling, partial curve].

As to `COCCNC(=O)CCn1c(=O)c2cc(OC)c(OC)cc2n(CC(=O)Nc2ccccc2OC)c1=O`, the AC50 under setting [1] is 1.26 µM [falling, full curve].

Take `CC(=O)c1nnn(-c2nc(N)nc(N(c3ccccc3)c3ccccc3)n2)c1C`: the AC50 under setting [1] was 10 µM [falling, partial curve].

Regarding `CCc1cccc(CC)c1N(COC)C(=O)Cn1c(C)nc2ccccc21`, under setting [1], the half-maximal activity concentration (AC50) was 25.1 µM [falling, partial curve].

Take `O=C(Nc1ccc(F)c(Cl)c1)C1Cc2ccccc2CN1S(=O)(=O)c1ccc(F)cc1` (stereo not drawn): under setting [1], the AC50 is 1.26 µM [falling, full curve].

Take `Clc1ccc(N2CCN(Cc3nnc(-c4ccc5c(c4)OCO5)o3)CC2)cc1`: the AC50 under setting [1] is 12.6 µM [falling, partial curve].

For `COc1ccc(NC(=O)C2=C(C)Nc3c(C(=O)Nc4ccc(C)cc4)cnn3C2c2cccc(Cl)c2)cc1` (stereo not drawn), under setting [1], the AC50 is 31.6 µM [falling, single point].

For the molecule `O=C(NC(C(=O)c1ccccc1)n1ccc(=O)[nH]c1=O)c1ccccc1` (stereo not drawn), under setting [1], the AC50 is 15.8 µM [falling, partial curve].

With `CCOC(=O)N1CCN(S(=O)(=O)c2ccc(C(=O)Nc3nc4ccccc4s3)cc2)CC1`, under setting [1], the AC50 is 0.0501 µM [falling, full curve].

In the case of `CC(=O)N1c2ccccc2CC1C(=O)N1CCN(c2cccc(C)c2C)CC1` (stereo not drawn), under setting [1], the AC50 is 2 µM [falling, partial curve].

As to `Cc1oc2ccc(O)c(CN3CCOCC3)c2c1C(=O)Nc1ccc(C(C)C)cc1`, the AC50 under setting [1] is 15.8 µM [falling, partial curve].

In general, AC50 refers to the midpoint of the concentration-response curve, whichever way the signal moves.
